Numbering of substitutions follows the chain as printed. These are yes or no findings as the source states them, for the method shown. Some entries that bind do so weakly or less than the wild type.
B1: cAb001 (antibody, V domains shown)
VH: QVTLKESGPGILQPSQTLSLTCSFSGFSLNTFGMGVGWIRQPSGKGLEWLAHIWWDDDKYYNPALKSRLTISKDTSKNQVFLKIANVDTADTVTYYCARITTEVGNYDVWGMGTTVTVSS
VL: EIVLTQSPALMAASPGEKVTITCSVSSGITSNNLHWYQQKSETSPKPWIYGTSNLASGVPIRFSGSGSGTSYSLTISSMEAEDAATYYCQQWSSYPFTFGSGTKLEIK
notes: also called mAb001/cAb001
B2: cAb002 (antibody, human IgG1, V domains shown)
VH: QVTLKESGPGILQPSQTLSLTCSFSGFSLSTFGLGVGWIRQPSGKGLEWLAQIWWDDDEYYNPALKSRLTISKDTSRNQVFLKIANVDTGDTATYFCARMGDTYWYFDVWGTGTTVAVSS
VL: B1 VL with L4V, A13V, V25L, N32S, I61V, G69K
notes: also called mAb002/cAb002
B3: cAb029 (antibody, human IgG1, V domains shown)
VH: QVTLKESGPGILQPSQTLSLTCSFSGFSLSTFGMGVGWIRQPSGKGLEWLAHIWWDDDEYYNPALKSRLTISKDTSKNQVFLKIANVDTADTATYYCTRIMLTTGYFDVWGTGTTVTVSS
VL: B1 VL with S24T, N32S, I61V, K104R
notes: also called mAb029/cAb029
B4: cAb046 (antibody, human IgG1, V domains shown)
VH: EVQLVESGGGLVKPGGSLKLSCAASGFTFSSYAMSWVRQTPEKRLEWVATISEGGSYTYYPDNVKGRFTISRDNARNNLYLQMSHLKSEDTAMYLCVRDNPWFAYWGQGTLVTVST
VL: DVLMTQTPLSLPVSLGDRASISCRSSQNIVHSNGNTYLEWFLQKPGQSPKLLIYKVSKRFSGVPDRFSGSGSGTDFTLKISRVEAEDLGVYYCFQGSHVPYTFGGGTKLEIK
notes: also called mAb046/cAb046
B5: cAb006 (antibody, human IgG1, V domains shown)
VH: QIQLQQSGAELMKPGASVKLSCKATGYTFTGHWIEWVKQRPGHGLEWVGEILPGSNKINYNEKFKGKATFTAETSSNTVYMQLSSLTTEDSAIYYCAGGGGPHWPFAFWGQGSLVTVSA
VL: DIVLTQSPASLTVSLGQRATISCRASESVNVHGAHLMHWYQQKPGQPPKLLIYAASILESGVPARFSGSGSETDFTLNIHPVEEEDAATYFCQQTIEDPRTFGGGTKLEIK
notes: also called mAb006/cAb006
B6: cAb042 (antibody, human IgG1, V domains shown)
VH: QVQLQQSGPELVKSGASVKLSCKASGYTFTTYDINWMKQRPGQGLEWIGWIYPRDGSTKYNAKFKGKATLTEDTSSNTAFMELHSLTSEDSAVYFCARERIYDGSFDYWGQGTTLTVSS
VL: DIVMTQSPSSLSVSAGEKVSMRCKSSQRLFNSRDQKNYLAWYQQKPGQPPKLLIYGASTRESGVPDRFTGSGSGTDFTLTISSVQAEDLAVYYCQNDHIYPLTFGAGTKLELK
notes: also called mAb042/cAb042
B7: cAb037 (antibody, human IgG1, V domains shown)
VH: QVRLQQSGPELVKPGASVQMSCKASGYTFTDYYINWVKQRPGQGLEWIAWIFPGNGNTYFNENFKDKATLSVDKFSSTAFMLLSSLTSEDSAVYFCARATYDHGGYWYFDVWGTGTTVTVSS
VL: QIVLSQSPAILSASPGEKVTMTCRASSSVSHIHWYQQKPGSSPKPWIYATSNLASGVPGRFSGSGSGTSYSLTVSRVEAEDAATYYCQHWNSFTFGGGTELELK
notes: also called mAb037/cAb037

Chains of the proteins cited; added tags and fusions are not shown. Lines headed by an entry give the natural chain unless they say otherwise; changes in a name come on top. A line that says so, or that is headed by a name, gives the form on record, which may keep a tag or linker.
recombinant monkey CD25-His protein (monkey (cynomolgus)) (H6WS54, form named): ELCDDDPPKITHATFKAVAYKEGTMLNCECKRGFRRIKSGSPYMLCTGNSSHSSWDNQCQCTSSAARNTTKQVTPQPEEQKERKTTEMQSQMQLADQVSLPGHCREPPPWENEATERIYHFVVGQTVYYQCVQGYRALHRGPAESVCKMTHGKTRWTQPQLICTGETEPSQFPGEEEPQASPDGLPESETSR

target: recombinant monkey CD25-His protein (monkey (cynomolgus)) (UniProt H6WS54); experiment: ELISA, plate coated with monkey CD25-His

binding, binds:
B1
B2
B3
B4
B5
B6
B7

— patent US20230174670A1 (JIANGSU HENGRUI PHARMACEUTICALS, published 2023)
